Assay results taken from PubChem BioAssay AID1671190 (National Center for Advancing Translational Sciences (NCATS), 2021).
“And” between values parts separate entries of the source, which are not always exact repeats. Identical values can stand only once. About 6,100 (1.1%) of roughly 580,000 compounds were called active. Inconclusive results, whose numbers are uncertain, are shown with a selection of clear calls. Calls follow the shape of the dose curve; as a rule, active = well fitted inhibition curve with a large enough effect; inconclusive = small, poorly fitted or top-dose-only effect, or another doubt; inactive = no such curve, though single readings can be large or run the other way. Where the call is inconclusive, the potency comes from a doubtful curve fit.

Protein sequences, listed by entry. Tags and fused reporters are not part of them. Lines headed by an entry give the natural chain unless they say otherwise; changes in a name come on top.
UniProt P18054: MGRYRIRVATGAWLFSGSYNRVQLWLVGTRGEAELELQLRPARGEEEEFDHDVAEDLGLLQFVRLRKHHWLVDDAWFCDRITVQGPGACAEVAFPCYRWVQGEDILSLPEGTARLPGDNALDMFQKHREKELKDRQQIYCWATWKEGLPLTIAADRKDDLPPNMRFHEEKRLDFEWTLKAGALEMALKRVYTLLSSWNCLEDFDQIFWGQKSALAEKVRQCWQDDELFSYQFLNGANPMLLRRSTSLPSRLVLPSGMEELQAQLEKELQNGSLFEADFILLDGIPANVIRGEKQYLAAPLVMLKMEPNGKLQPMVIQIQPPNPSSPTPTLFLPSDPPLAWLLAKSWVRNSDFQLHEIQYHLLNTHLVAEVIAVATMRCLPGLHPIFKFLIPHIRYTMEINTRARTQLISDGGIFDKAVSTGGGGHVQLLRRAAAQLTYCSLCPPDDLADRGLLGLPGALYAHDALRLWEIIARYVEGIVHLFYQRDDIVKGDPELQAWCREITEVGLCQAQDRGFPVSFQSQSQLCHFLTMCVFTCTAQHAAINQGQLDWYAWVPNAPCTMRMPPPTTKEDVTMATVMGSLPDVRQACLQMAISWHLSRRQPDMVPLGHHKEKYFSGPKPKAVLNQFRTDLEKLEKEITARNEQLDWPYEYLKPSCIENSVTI

Each compound was assayed against Polyunsaturated fatty acid lipoxygenase ALOX12 (Homo sapiens) (UniProt P18054) (assay: Primary qHTS assay for inhibitors of human arachidonate 12S-lipoxygenase (ALOX12): Round 2). Conditions: purified 12hLO, xylenol orange hydroperoxide absorbance; activity change, negative = inhibition: at 108 µM (top of the series) unless noted.
In short: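 Purified human 12hLO (150 nM final) in 25 mM Hepes, 0.01% Triton X-100, pH 7.0 was preincubated 15 min at room temperature with compound. Then 40 uM arachidonic acid was added, 30 min. Hydroperoxide was read by Fe-XO absorbance ratio 573/405 nm.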
% is scaled to controls: 0 for no effect and ±100 for the full control effect; potency is read from the fitted curve at half-maximal effect.

Row | SMILES | activity change, negative = inhibition | Potency
1 | CCOC(=O)c1c(C)[nH]c(CCC(=O)NCc2ccccc2C)c1C | inactive: -24.7% | –
2 | Cc1ccc(N2CCN(C(CCc3ccccc3)C(=O)Nc3c(C)cccc3C)CC2)cc1 (stereo unspecified) | inactive: -12.1% | –
3 | CCCCOc1ccc(/C=C(/C#N)c2ccccn2)cc1 | – | inconclusive: 11.2 µM [inhibitor, partial curve, poor fit]
4 | CCc1ccc(C2CC(C(=O)NCc3ccc4c(c3)OCO4)CN(C(=O)c3ccc(F)cc3)C2)cc1 (stereo unspecified) | – | inconclusive: 28.2 µM [inhibitor, full curve, poor fit]
5 | COc1cccc(C2CC(=O)N3CN(C4CCCCC4)CSC3=C2C#N)c1 (stereo unspecified) | – | active: 12.6 µM
6 | COC(=O)NN1C(=O)C(c2ccccc2)=C(c2ccc(Cl)cc2)C1=O | – | inconclusive: 8.91 µM [inhibitor, full curve, poor fit]
7 | Cc1c(C)[n+](=O)c(-c2ccc(Br)cc2)c(C)n1[O-] | – | inconclusive: 126 µM [inhibitor, single point]
8 | CC1CN(C(=O)N2CCC(C(=O)NC3CCCCCC3)CC2)c2ccccc2O1 (stereo unspecified) | inactive: 1.29% | –
9 | O=C(c1nc(-c2ccc(Cl)cc2Cl)c2cnccn12)N1CCOCC1 | – | inconclusive: 50.1 µM [inhibitor, partial curve, poor fit]
10 | Nc1nc(SCC(=O)c2cc3ccccc3o2)n[nH]1 | – | inconclusive: 39.8 µM [inhibitor, partial curve, poor fit]
11 | N#Cc1c(NC(=O)C2CC(c3ccccc3Cl)=NO2)sc2c1CCC2 (stereo unspecified) | – | inconclusive: 44.7 µM [inhibitor, partial curve]
12 | O=Cc1ccc(OCc2ccc(I)cc2)c(Cl)c1 | – | inconclusive: 50.1 µM [inhibitor, partial curve, poor fit]
13 | Fc1ccc(CCNC(=S)NC2CCCCC2)cc1 | – | inconclusive: 44.7 µM [inhibitor, partial curve, poor fit]
14 | Cc1cc(C(=O)O)cc(Br)c1N | inactive: 2.89% | –
15 | O=C(COC(=O)C1CCC(=O)N1)Nc1ccccc1OC(F)F (stereo unspecified) | inactive: -25.2% | –
16 | COc1ccc(S(=O)(=O)NC(C)C(=O)Nc2ccccc2C(F)(F)F)cc1 (stereo unspecified) | – | inconclusive: 56.2 µM [inhibitor, partial curve, poor fit]
17 | N#Cc1nc(-c2ccc(F)cc2)oc1NCc1ccc(Cl)cc1 | – | inconclusive: 28.2 µM [inhibitor, partial curve, poor fit]
18 | CC(C)CC(=O)Nc1cccc(-c2nc3ccccc3o2)c1 | – | inconclusive: 56.2 µM [inhibitor, single point]
19 | Oc1ccccc1N=Cc1ccc[nH]1 | – | inconclusive: 28.2 µM [inhibitor, partial curve, poor fit]
20 | Cc1noc(C)c1NC(=O)Nc1ccc2c(c1)C(=O)N([C@H](C)CO)C[C@H](C)[C@@H](CN(C)S(=O)(=O)c1ccc(Cl)cc1)OCCCC[C@@H](C)O2 | – | inconclusive: 50.1 µM [inhibitor, single point]
21 | O=c1c(-c2ccccc2)nc2cncnc2n1C1CC1 | – | inconclusive: 79.4 µM [inhibitor, single point]

Row | SMILES | activity change, negative = inhibition | Potency
22 | Cc1cn2c(=O)cc(CSc3ccccc3NC(=O)COc3ccccc3Cl)nc2s1 | – | inconclusive: 3.98 µM [inhibitor, full curve, poor fit]
23 | CN(C)c1ccc(/C=C(\NC(=O)c2ccccc2)C(=O)NCc2cccnc2)cc1 | inactive: -27.5% | –
24 | CCN1CCN(c2ccc(S(=O)(=O)N3CCOCC3)cc2NC(=O)c2ccc(OCC(C)C)cc2)CC1 | inactive: 83.3% | –
25 | C#CCOCCOCCOCCNc1nc(N2CCN(C(=O)Cn3cc(CCCN=C(N)N)nn3)CC2)nc(N2CCN(C(=O)[C@H](CCCCN)n3cc(CCCC)nn3)CC2)n1 | – | inconclusive: 63.1 µM [inhibitor, partial curve, poor fit]
26 | CC1(Oc2ccc(CC#N)cc2)CCN(Cc2ccc(-n3ccnc3)cc2)C1 (stereo unspecified) | – | inconclusive: 44.7 µM [inhibitor, partial curve, poor fit]
27 | Cc1cc2cc(CN(Cc3ccco3)C(=S)NCC3CCCO3)c(=O)[nH]c2cc1C (stereo unspecified) | – | inconclusive: 89.1 µM [inhibitor, single point]
28 | COc1ccc(NC(=O)C2CCN(c3nc4ccccc4o3)CC2)c(OC)c1 | – | inconclusive: 89.1 µM [inhibitor, partial curve, poor fit]
29 | CCOC(=O)C(=O)CC(=O)c1ccc(Cl)c(Cl)c1 | – | inconclusive: 11.2 µM [inhibitor, full curve, poor fit]
30 | CNS(=O)(=O)CCc1ccc2[nH]cc(C3CCN(C)CC3)c2c1 | – | inconclusive: 15.3 µM [inhibitor, single point]
31 | Cc1cc2c(NC(=O)Nc3ccc(C(F)(F)F)cc3)cccc2nn1 | – | inconclusive: 39.8 µM [inhibitor, partial curve, poor fit]
32 | CC(=O)OCCNc1cc(Sc2nc3ccccc3[nH]2)c2nonc2c1[N+](=O)[O-] | – | inconclusive: 31.6 µM [inhibitor, partial curve, poor fit]
33 | COc1ccccc1-n1c(SCC(=O)Nc2ccc(C)cc2)nc(O)cc1=O | – | inconclusive: 5.01 µM [inhibitor, full curve, poor fit] and active: 316 nM
34 | O=C(NCc1nc(-c2cccc(F)c2)c(-c2ccccn2)[nH]1)N1CCCC1 | inactive: 146% | –
35 | Fc1ccc(N/N=C/c2ccc(Br)cc2)c(F)c1 | – | inconclusive: 12.6 µM [inhibitor, partial curve, poor fit]
36 | O=C(CSc1nc2cc(Cl)c(Cl)cc2[nH]1)c1ccc2c(c1)OCO2 | – | inconclusive: 31.6 µM [inhibitor, single point]
37 | COC(=O)C(C(=O)OC)C(c1ccc(Cl)cc1)C(C)C(=O)c1ccc(C)cc1 (stereo unspecified) | inactive: 7.66% | –
38 | CC(C)CNC(=O)c1cccc(NC(=O)COc2ccc([N+](=O)[O-])cc2)c1 | inactive: -5.24% | –
39 | Cc1ccc(-c2noc([C@@H]3C[C@H](NS(=O)(=O)Cc4ccccc4)CN3C)n2)cc1 | inactive: 17.5% [at 176 µM] | –
40 | Cc1ccc(S(=O)(=O)NCc2ccc(C(=O)N3CCN(c4cccc(C)c4C)CC3)cc2)cc1 | – | inconclusive: 7.94 µM [inhibitor, full curve]
41 | Cc1ccc(C(=O)Nc2ccc(N3CCN(C)CC3)cc2)cc1 | – | inconclusive: 79.4 µM [inhibitor, single point]
42 | Cc1cccc(C(=O)NCC(=O)N2CC=C(c3ccccc3)CC2)c1 | – | inconclusive: 79.4 µM [inhibitor, single point]

Row | SMILES | activity change, negative = inhibition | Potency
43 | O=C(Nc1ccc(N2CCCC2)cc1)c1cccc(Cl)c1 | – | inconclusive: 5.62 µM [inhibitor, full curve, poor fit]
44 | Cc1ccc(S(=O)(=O)N2CCC(=O)N([C@H](COCc3ccc(Cl)cc3Cl)Cc3ccccc3)CC2)cc1 | – | inconclusive: 39.8 µM [inhibitor, partial curve, poor fit]
45 | CNS(=O)(=O)c1cccc(C(=O)OCCCC(=O)c2ccccc2)c1 | – | inconclusive: 126 µM [inhibitor, single point]
46 | CC1=C(c2ccc(F)cc2)S(=O)(=O)N=C1N1CCC(C(=O)NCCc2ccccc2)CC1 | – | inconclusive: 100 µM [inhibitor, partial curve, poor fit]
47 | CC(=O)Nc1ccc2[nH]cc(C(C(=O)O)N3CCN(c4cc(C)c5ccccc5n4)CC3)c2c1 (stereo unspecified) | – | inconclusive: 35.5 µM [inhibitor, partial curve, poor fit]
48 | O=C(CN(Cc1ccccc1)C(=O)c1cc2c(s1)CCC2)NCc1cccs1 | inactive: 0% | –
49 | CCc1ccc(N(C(=O)c2snc(C(N)=O)c2N)C(C(=O)NCC2CCCO2)c2ccco2)cc1 (stereo unspecified) | – | inconclusive: 44.7 µM [inhibitor, partial curve, poor fit]
50 | CCn1c(NN)nc2sc3c(c2c1=O)CCC3 | – | inconclusive: 44.7 µM [inhibitor, partial curve, poor fit]
51 | O=C(Cc1ccccc1)N/N=C/C=C/c1ccccc1[N+](=O)[O-] | – | inconclusive: 0.141 µM [inhibitor, full curve, poor fit]
52 | CCc1cccc2c(C3=NNC(=NC4CC4)SC3)c[nH]c12 | – | inconclusive: 100 µM [inhibitor, partial curve, poor fit]
53 | Cc1noc(C)c1CCC(=O)Nc1nc(-c2ccc3c(c2)CCO3)cs1 | – | inconclusive: 22.4 µM [inhibitor, partial curve, poor fit]
54 | CC(C)c1ccc(Cc2cn3cc(-c4cc5ccccc5oc4=O)nc3s2)cc1 | – | inconclusive: 112 µM [inhibitor, single point]
55 | Cc1cc(/C=C(\C#N)C(=O)NCc2ccco2)c(C)n1-c1cccnc1 | – | inconclusive: 100 µM [inhibitor, partial curve, poor fit]
56 | Cc1ccc2oc(-c3ccccc3)cc(=NCCCCCC(=O)O)c2c1 | inactive: 1.78% | –
57 | COc1ccc(CCN2C(=O)CCC2(C)c2nnnn2-c2ccc3c(c2)OCCO3)cc1OC (stereo unspecified) | – | inconclusive: 3.16 µM [inhibitor, full curve, poor fit]
58 | FC(F)(F)c1ccc(CN2CC[C@H](c3nc4ccc(C(F)(F)F)cc4[nH]3)C2)cc1 | – | inconclusive: 63.1 µM [inhibitor, full curve]
59 | Clc1ccc(-c2csc(-c3ccno3)n2)cc1 | – | inconclusive: 56.2 µM [inhibitor, partial curve, poor fit]
60 | COc1ccc(Cn2c(C3CCN(C(=O)c4ccc(Cl)cc4)CC3)n[nH]c2=O)cc1 | – | inconclusive: 44.7 µM [inhibitor, partial curve]
61 | COCC1(CNCc2cnn(C)c2)C[C@@H](O)[C@@H](O)C1 (stereo partly specified) | – | inconclusive: 50.1 µM [inhibitor, full curve]
